These are yes or no findings as the source states them, for the method shown. Where a sequence is shown, tags or fusion partners need not be part of it.

In the experiment the target is C101-p75-C257A-3xFLAG (rat). As to the kind of experiment: SDS-PAGE and Western blot with or without DTT; purified C101-p75-3xFLAG substrates, with or without DTT (20 mM), anti-FLAG blot; both purified.

B1: C101-p75-C257A-3xFLAG (domain or fragment)
chain: MVTTVMGSSQPVVTRGTTDNLIPVYASILAAVVVGLVAYIAFKRWNSCKQNKQGANSRPVNQTPPPEGEKLHSDSGISVDSQSLHDQQTHTQTASGQALKG
Consider B1, for which the binding result is “no binding”.

Source of the values: PMC7898468, “TrkA-mediated endocytosis of p75-CTF prevents cholinergic neuron death upon γ-secretase inhibition” (Life Science Alliance, 2021).
